# Laboratory results published in the supplement of paper PMC8728848.
# The other results are listed elsewhere or left out.
# Key:
# Experiment in all cases: glycan array binding signal (z-score within array); higher = stronger binding
# Settings in all cases: glycan notation: IUPAC condensed, linker removed
# Gal3S(b1-4)Glc = biological target: Gal3S(b1-4)Glc
# Method in brief: (§1)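 Glycan array data came from 3228 arrays in the Consortium for Functional Glycomics database, and only arrays with an available protein sequence were kept. Glycan names were put into IUPAC-condensed notation, and columns mapping to the same glycan were averaged. The binding signal is a within-array Z-score, averaged across arrays of one protein sequence run at different concentrations or buffers and across linkers. A negative Z-score can be read as non-binding.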
# Gal3S(b1-4)Glc6S = biological target: Gal3S(b1-4)Glc6S
# Method in brief: as §1
# Gal3S(b1-4)GlcNAc = biological target: Gal3S(b1-4)GlcNAc
# Method in brief: as §1
# [1] = biological target: Gal3S(b1-4)[Fuc(a1-3)]Glc6S
# Method in brief: as §1
# [2] = biological target: Gal3S(b1-4)[Fuc(a1-3)]GlcNAc
# Method in brief: as §1
# [3] = biological target: Gal3S(b1-4)[Fuc(a1-3)]GlcNAc6S
# Method in brief: as §1
# Gal3S4S(b1-4)GlcNAc = biological target: Gal3S4S(b1-4)GlcNAc
# Method in brief: as §1
# Gal3S6S(b1-4)GlcNAc = biological target: Gal3S6S(b1-4)GlcNAc
# Method in brief: as §1
# Gal3S6S(b1-4)GlcNAc6S = biological target: Gal3S6S(b1-4)GlcNAc6S
# Method in brief: as §1
# Gal4S(b1-4)GlcNAc = biological target: Gal4S(b1-4)GlcNAc
# Method in brief: as §1
# Gal4S6S(b1-4)GlcNAc = biological target: Gal4S6S(b1-4)GlcNAc
# Method in brief: as §1
# Gal6P(b1-4)GlcNAc = biological target: Gal6P(b1-4)GlcNAc
# Method in brief: as §1
# Gal6S(b1-3)GlcNAc = biological target: Gal6S(b1-3)GlcNAc
# Method in brief: as §1
# Gal6S(b1-3)GlcNAc6S = biological target: Gal6S(b1-3)GlcNAc6S
# Method in brief: as §1
# Gal6S(b1-4)Glc = biological target: Gal6S(b1-4)Glc
# Method in brief: as §1
# Gal6S(b1-4)Glc6S = biological target: Gal6S(b1-4)Glc6S
# Method in brief: as §1
# Gal6S(b1-4)GlcNAc = biological target: Gal6S(b1-4)GlcNAc
# Method in brief: as §1
# Gal6S(b1-4)GlcNAc6S = biological target: Gal6S(b1-4)GlcNAc6S
# Method in brief: as §1
# GalNAc(a1-3)Gal = biological target: GalNAc(a1-3)Gal
# Method in brief: as §1
# GalNAc(a1-3)GalNAc = biological target: GalNAc(a1-3)GalNAc
# Method in brief: as §1
# [4] = biological target: GalNAc(a1-3)GalNAc(b1-3)Gal(a1-4)Gal(b1-4)Glc
# Method in brief: as §1
# [5] = biological target: GalNAc(a1-3)GalNAc(b1-3)Gal(a1-4)Gal(b1-4)GlcNAc
# Method in brief: as §1
# GalNAc(b1-3)Gal = biological target: GalNAc(b1-3)Gal
# Method in brief: as §1
# [6] = biological target: GalNAc(b1-3)Gal(a1-4)Gal(b1-4)GlcNAc
# Method in brief: as §1
# [7] = biological target: GalNAc(b1-3)Gal(a1-4)Gal(b1-4)GlcNAc(b1-3)Gal(b1-4)Glc
# Method in brief: as §1
# [8] = biological target: GalNAc(b1-3)Gal(a1-6)Gal(b1-4)Glc
# Method in brief: as §1
# GalNAc(b1-3)GalNAc = biological target: GalNAc(b1-3)GalNAc
# Method in brief: as §1
# GalNAc(b1-3)GlcNAc = biological target: GalNAc(b1-3)GlcNAc
# Method in brief: as §1
# GalNAc(b1-4)Gal(b1-4)Glc = biological target: GalNAc(b1-4)Gal(b1-4)Glc
# Method in brief: as §1
# GalNAc(b1-4)GlcNAc = biological target: GalNAc(b1-4)GlcNAc
# Method in brief: as §1
# [9] = biological target: GalNAc(b1-4)GlcNAc(b1-2)Man
# Method in brief: as §1
# [10] = biological target: GalNAc(b1-4)GlcNAc(b1-2)Man(a1-3)[GalNAc(b1-4)GlcNAc(b1-2)Man(a1-6)]Man(b1-4)GlcNAc(b1-4)GlcNAc
# Method in brief: as §1
# [11] = biological target: GalNAc(b1-4)GlcNAc(b1-3)GalNAc(b1-4)GlcNAc
# Method in brief: as §1
# GalNAc(b1-4)GlcNAc6S = biological target: GalNAc(b1-4)GlcNAc6S
# Method in brief: as §1
# GalNAc(b1-6)GalNAc = biological target: GalNAc(b1-6)GalNAc
# Method in brief: as §1
# GalNAc3S(b1-4)GlcNAc = biological target: GalNAc3S(b1-4)GlcNAc
# Method in brief: as §1
# GalNAc3S(b1-4)GlcNAc3S = biological target: GalNAc3S(b1-4)GlcNAc3S
# Method in brief: as §1
# [12] = biological target: GalNAc3S(b1-4)[Fuc(a1-3)]GlcNAc
# Method in brief: as §1
# GalNAc4S6S(b1-4)GlcNAc = biological target: GalNAc4S6S(b1-4)GlcNAc
# Method in brief: as §1
# GalNAc6S(b1-4)GlcNAc = biological target: GalNAc6S(b1-4)GlcNAc
# Method in brief: as §1
# Glc(a1-4)Glc = biological target: Glc(a1-4)Glc
# Method in brief: as §1
# [13] = biological target: Glc(a1-4)Glc(a1-4)Glc(a1-4)Glc
# Method in brief: as §1
# Glc(a1-6)Glc(a1-6)Glc = biological target: Glc(a1-6)Glc(a1-6)Glc
# Method in brief: as §1
# [14] = biological target: Glc(a1-6)Glc(a1-6)Glc(a1-6)Glc
# Method in brief: as §1
# Glc(b1-4)Glc = biological target: Glc(b1-4)Glc
# Method in brief: as §1
# Glc(b1-6)Glc = biological target: Glc(b1-6)Glc
# Method in brief: as §1
# GlcA(b1-3)Gal = biological target: GlcA(b1-3)Gal
# Method in brief: as §1
# GlcA(b1-3)GlcNAc = biological target: GlcA(b1-3)GlcNAc
# Method in brief: as §1
# GlcA(b1-6)Gal = biological target: GlcA(b1-6)Gal
# Method in brief: as §1
# [15] = biological target: GlcA3S(b1-3)Gal(b1-4)GlcNAc(b1-2)Man
# Method in brief: as §1
# [16] = biological target: GlcA3S(b1-3)Gal(b1-4)GlcNAc(b1-3)Gal(b1-4)Glc
# Method in brief: as §1
# [17] = biological target: GlcNAc(a1-3)Gal(b1-4)GlcNAc
# Method in brief: as §1
# [18] = biological target: GlcNAc(a1-4)Gal(b1-3)GlcNAc
# Method in brief: as §1
# [19] = biological target: GlcNAc(a1-4)Gal(b1-4)GalNAc
# Method in brief: as §1
# [20] = biological target: GlcNAc(a1-4)Gal(b1-4)GlcNAc
# Method in brief: as §1
# [21] = biological target: GlcNAc(a1-4)Gal(b1-4)GlcNAc(b1-3)Gal(b1-4)Glc
# Method in brief: as §1
# [22] = biological target: GlcNAc(a1-4)Gal(b1-4)GlcNAc(b1-3)Gal(b1-4)GlcNAc
# Method in brief: as §1
# [23] = biological target: GlcNAc(a1-4)Gal(b1-4)GlcNAc(b1-3)Gal(b1-4)GlcNAc(b1-3)Gal(b1-4)GlcNAc
# Method in brief: as §1
# [24] = biological target: GlcNAc(a1-4)Gal(b1-4)GlcNAc(b1-3)Gal(b1-4)[Fuc(a1-3)]GlcNAc(b1-3)Gal(b1-4)[Fuc(a1-3)]GlcNAc
# Method in brief: as §1
# [25] = biological target: GlcNAc(a1-6)Gal(b1-4)GlcNAc
# Method in brief: as §1
binder,measurement,setting,value
TAL6-6LysM (Trichoderma atroviride) (protein) AASKLGVPQPAQRDQVNCQLYAVQPNDNCIDISSKNNITYAQLLSWNPSLSSTCSNLASLNSSSICVSNPKGTFSISSNTVGATDIATTTAPVPSPTLDQTTSRCAKYYQVSDGDDCSHLTAQFAITLKDFIFLNSEVWQNCTNLELGYYYCVEPVGYISTYPGYLPTATTKPFNQTSATSLPYDGDPWARFSSNSSVIPIANGTRVDCYSYVYVKNLTENLFADCWNMASMYEITREELVLWNPSLGNDGSSGSNLSGAEASQVASSIAIPTTAPSSITTNLYTYPCTVAANISYCVALVSSTGALPTNTAPPGPHASGEISNCTAWFAPEAYDTCKSILDIFEMSFANFYKMNPSVGPDCSGLAVGTNYCVSTYPNGEDPNDDWDGDDSIPSISPTGIITPTPTQSGMVSNCNKFYDVHSNDGCSAIASSQHVDLSSLYKWNPAIKTDCSGLQASVYVCIGILTTSMSTTSKLPTTTSKPSTTSKPPTGITTPTPTQSGMVKNCNKFYDVHSGDGCSAIASSQKVNLSSFYLWNPAVKTDCSGLQASVFVCIGTLTTSMSTTTSKLPTTTSKPSTTSKPPTGIITPTPTQNGMVKNCNKFYDVHSGDGCSAIASSQKVNLSSFYLWNPAVKTDCSGLQASVFVCVGTATTTTAAGITTPTPTQSGMVSGCNKFYDVHAGDGCSAIASSQKIALSSLYKWNPAVKTDCSGLQASVYICIGVGNAAAARVTGAAASFLEQKLISEEDLNSAVDHHHHHH,glycan array binding signal (z-score),Gal3S(b1-4)Glc,-0.868
same,glycan array binding signal (z-score),Gal3S(b1-4)Glc6S,1.86
same,glycan array binding signal (z-score),Gal3S(b1-4)GlcNAc,0.434
same,glycan array binding signal (z-score),[1],2.96
same,glycan array binding signal (z-score),[2],-0.685
same,glycan array binding signal (z-score),[3],0.703
same,glycan array binding signal (z-score),Gal3S4S(b1-4)GlcNAc,-0.547
same,glycan array binding signal (z-score),Gal3S6S(b1-4)GlcNAc,2.51
same,glycan array binding signal (z-score),Gal3S6S(b1-4)GlcNAc6S,3
same,glycan array binding signal (z-score),Gal4S(b1-4)GlcNAc,0.093
same,glycan array binding signal (z-score),Gal4S6S(b1-4)GlcNAc,0.716
same,glycan array binding signal (z-score),Gal6P(b1-4)GlcNAc,-1.32
same,glycan array binding signal (z-score),Gal6S(b1-3)GlcNAc,-0.839
same,glycan array binding signal (z-score),Gal6S(b1-3)GlcNAc6S,-1.52
same,glycan array binding signal (z-score),Gal6S(b1-4)Glc,0.457
same,glycan array binding signal (z-score),Gal6S(b1-4)Glc6S,0.948
same,glycan array binding signal (z-score),Gal6S(b1-4)GlcNAc,0
same,glycan array binding signal (z-score),Gal6S(b1-4)GlcNAc6S,-0.018
same,glycan array binding signal (z-score),GalNAc(a1-3)Gal,2.44
same,glycan array binding signal (z-score),GalNAc(a1-3)GalNAc,-1.35
same,glycan array binding signal (z-score),[4],0.454
same,glycan array binding signal (z-score),[5],-0.794
same,glycan array binding signal (z-score),GalNAc(b1-3)Gal,1.28
same,glycan array binding signal (z-score),[6],-0.315
same,glycan array binding signal (z-score),[7],0.376
same,glycan array binding signal (z-score),[8],-0.542
same,glycan array binding signal (z-score),GalNAc(b1-3)GalNAc,-0.84
same,glycan array binding signal (z-score),GalNAc(b1-3)GlcNAc,-0.241
same,glycan array binding signal (z-score),GalNAc(b1-4)Gal(b1-4)Glc,0.273
same,glycan array binding signal (z-score),GalNAc(b1-4)GlcNAc,1.07
same,glycan array binding signal (z-score),[9],-1.48
same,glycan array binding signal (z-score),[10],1.82
same,glycan array binding signal (z-score),[11],-1.49
same,glycan array binding signal (z-score),GalNAc(b1-4)GlcNAc6S,0.992
same,glycan array binding signal (z-score),GalNAc(b1-6)GalNAc,-0.303
same,glycan array binding signal (z-score),GalNAc3S(b1-4)GlcNAc,-0.702
same,glycan array binding signal (z-score),GalNAc3S(b1-4)GlcNAc3S,0.68
same,glycan array binding signal (z-score),[12],-0.003
same,glycan array binding signal (z-score),GalNAc4S6S(b1-4)GlcNAc,-1.08
same,glycan array binding signal (z-score),GalNAc6S(b1-4)GlcNAc,0.157
same,glycan array binding signal (z-score),Glc(a1-4)Glc,-0.579
same,glycan array binding signal (z-score),[13],-0.353
same,glycan array binding signal (z-score),Glc(a1-6)Glc(a1-6)Glc,-0.776
same,glycan array binding signal (z-score),[14],-0.39
same,glycan array binding signal (z-score),Glc(b1-4)Glc,-0.772
same,glycan array binding signal (z-score),Glc(b1-6)Glc,-0.129
same,glycan array binding signal (z-score),GlcA(b1-3)Gal,0.744
same,glycan array binding signal (z-score),GlcA(b1-3)GlcNAc,1.11
same,glycan array binding signal (z-score),GlcA(b1-6)Gal,0.563
same,glycan array binding signal (z-score),[15],2.02
same,glycan array binding signal (z-score),[16],0.146
same,glycan array binding signal (z-score),[17],-0.284
same,glycan array binding signal (z-score),[18],0.821
same,glycan array binding signal (z-score),[19],-0.903
same,glycan array binding signal (z-score),[20],0.445
same,glycan array binding signal (z-score),[21],-1.31
same,glycan array binding signal (z-score),[22],-1.49
same,glycan array binding signal (z-score),[23],-0.008
same,glycan array binding signal (z-score),[24],-0.365
same,glycan array binding signal (z-score),[25],0.905

# Looked up one by one from above:
binder,measurement,setting,value
TAL6-6LysM (Trichoderma atroviride) (protein) AASKLGVPQPAQRDQVNCQLYAVQPNDNCIDISSKNNITYAQLLSWNPSLSSTCSNLASLNSSSICVSNPKGTFSISSNTVGATDIATTTAPVPSPTLDQTTSRCAKYYQVSDGDDCSHLTAQFAITLKDFIFLNSEVWQNCTNLELGYYYCVEPVGYISTYPGYLPTATTKPFNQTSATSLPYDGDPWARFSSNSSVIPIANGTRVDCYSYVYVKNLTENLFADCWNMASMYEITREELVLWNPSLGNDGSSGSNLSGAEASQVASSIAIPTTAPSSITTNLYTYPCTVAANISYCVALVSSTGALPTNTAPPGPHASGEISNCTAWFAPEAYDTCKSILDIFEMSFANFYKMNPSVGPDCSGLAVGTNYCVSTYPNGEDPNDDWDGDDSIPSISPTGIITPTPTQSGMVSNCNKFYDVHSNDGCSAIASSQHVDLSSLYKWNPAIKTDCSGLQASVYVCIGILTTSMSTTSKLPTTTSKPSTTSKPPTGITTPTPTQSGMVKNCNKFYDVHSGDGCSAIASSQKVNLSSFYLWNPAVKTDCSGLQASVFVCIGTLTTSMSTTTSKLPTTTSKPSTTSKPPTGIITPTPTQNGMVKNCNKFYDVHSGDGCSAIASSQKVNLSSFYLWNPAVKTDCSGLQASVFVCVGTATTTTAAGITTPTPTQSGMVSGCNKFYDVHAGDGCSAIASSQKIALSSLYKWNPAVKTDCSGLQASVYICIGVGNAAAARVTGAAASFLEQKLISEEDLNSAVDHHHHHH,glycan array binding signal (z-score),Gal4S(b1-4)GlcNAc,0.093
same,glycan array binding signal (z-score),GalNAc6S(b1-4)GlcNAc,0.157
same,glycan array binding signal (z-score),[25],0.905
